Measurements taken from article doi:10.1101/2020.10.23.342113.
No constants are given. Whether binding was seen depends on the method and setting. Binding seen in cells or lysates may run through a third protein. A yes stands for co-enrichment or nearness to the bait. Other partners may have been found.

B1: Ras-GTPase-activating protein SH3-domain-binding protein 2 (G3BP2), endogenous (protein, UniProt Q9UN86 1-482)
chain: MVMEKPSPLLVGREFVRQYYTLLNKAPEYLHRFYGRNSSYVHGGVDASGKPQEAVYGQNDIHHKVLSLNFSECHTKIRHVDAHATLSDGVVVQVMGLLSNSGQPERKFMQTFVLAPEGSVPNKFYVHNDMFRYEDEVFGDSEPELDEESEDEVEEEQEERQPSPEPVQENANSGYYEAHPVTNGIEEPLEESSHEPEPEPESETKTEELKPQVEEKNLEELEEKSTTPPPAEPVSLPQEPPKAFSWASVTSKNLPPSGTVSSSGIPPHVKAPVSQPRVEAKPEVQSQPPRVREQRPRERPGFPPRGPRPGRGDMEQNDSDNRRIIRYPDSHQLFVGNLPHDIDENELKEFFMSFGNVVELRINTKGVGGKLPNFGFVVFDDSEPVQRILIAKPIMFRGEVRLNVEEKKTRAARERETRGGGDDRRDIRRNDRGPGGPRGIVGGGMMRDRDGRGPPPRGGMAQKLGSGRGTGQMEGRFTGQRR
B2: ATXN2l, endogenous (protein, UniProt Q8WWM7 1-1075)
chain: MLKPQPLQQPSQPQQPPPTQQAVARRPPGGTSPPNGGLPGPLATSAAPPGPPAAASPCLGPVAAAGSGLRRGAEGILAPQPPPPQQHQERPGAAAIGSARGQSTGKGPPQSPVFEGVYNNSRMLHFLTAVVGSTCDVKVKNGTTYEGIFKTLSSKFELAVDAVHRKASEPAGGPRREDIVDTMVFKPSDVMLVHFRNVDFNYATKDKFTDSAIAMNSKVNGEHKEKVLQRWEGGDSNSDDYDLESDMSNGWDPNEMFKFNEENYGVKTTYDSSLSSYTVPLEKDNSEEFRQRELRAAQLAREIESSPQYRLRIAMENDDGRTEEEKHSAVQRQGSGRESPSLASREGKYIPLPQRVREGPRGGVRCSSSRGGRPGLSSLPPRGPHHLDNSSPGPGSEARGINGGPSRMSPKAQRPLRGAKTLSSPSNRPSGETSVPPPPAVGRMYPPRSPKSAAPAPISASCPEPPIGSAVPTSSASIPVTSSVSDPGVGSISPASPKISLAPTDVKELSTKEPGRTLEPQELARIAGKVPGLQNEQKRFQLEELRKFGAQFKLQPSSSPENSLDPFPPRILKEEPKGKEKEVDGLLTSEPMGSPVSSKTESVSDKEDKPPLAPSGGTEGPEQPPPPCPSQTGSPPVGLIKGEDKDEGPVAEQVKKSTLNPNAKEFNPTKPLLSVNKSTSTPTSPGPRTHSTPSIPVLTAGQSGLYSPQYISYIPQIHMGPAVQAPQMYPYPVSNSVPGQQGKYRGAKGSLPPQRSDQHQPASAPPMMQAAAAAGPPLVAATPYSSYIPYNPQQFPGQPAMMQPMAHYPSQPVFAPMLQSNPRMLTSGSHPQAIVSSSTPQYPSAEQPTPQALYATVHQSYPHHATQLHAHQPQPATTPTGSQPQSQHAAPSPVQHQAGQAPHLGSGQPQQNLYHPGALTGTPPSLPPGPSAQSPQSSFPQPAAVYAIHHQQLPHGFTNMAHVTQAHVQTGITAAPPPHPGAPHPPQVMLLHPPQSHGGPPQGAVPQSGVPALSASTPSPYPYIGHPQGEQPGQAPGFPGGADDRIREFSLAGGIWHGRAEGLQVGQDARVLGGE
B3: NUFIP2, endogenous (protein, UniProt Q7Z417 1-695)
chain: MEEKPGQPQPQHHHSHHHPHHHPQQQQQQPHHHHHYYFYNHSHNHHHHHHHQQPHQYLQHGAEGSPKAQPKPLKHEQKHTLQQHQETPKKKTGYGELNGNAGEREISLKNLSSDEATNPISRVLNGNQQVVDTSLKQTVKANTFGKAGIKTKNFIQKNSMDKKNGKSYENKSGENQSVDKSDTIPIPNGVVTNNSGYITNGYMGKGADNDGSGSESGYTTPKKRKARRNSAKGCENLNIVQDKIMQQETSVPTLKQGLETFKPDYSEQKGNRVDGSKPIWKYETGPGGTSRGKPAVGDMLRKSSDSKPGVSSKKFDDRPKGKHASAVASKEDSWTLFKPPPVFPVDNSSAKIVPKISYASKVKENLNKTIQNSSVSPTSSSSSSSSTGETQTQSSSRLSQVPMSALKSVTSANFSNGPVLAGTDGNVYPPGGQPLLTTAANTLTPISSGTDSVLQDMSLTSAAVEQIKTSLFIYPSNMQTMLLSTAQVDLPSQTDQQNLGDIFQNQWGLSFINEPSAGPETVTGKSSEHKVMEVTFQGEYPATLVSQGAEIIPSGTEHPVFPKAYELEKRTSPQVLGSILKSGTTSESGALSLEPSHIGDLQKADTSSQGALVFLSKDYEIESQNPLASPTNTLLGSAKEQRYQRGLERNDSWGSFDLRAAIVYHTKEMESIWNLQKQDPKRIITYNEAMDSPDQ

Biological target: G3BP1 used as the bait for AP-MS (UniProt Q13283)
Test: affinity purification with mass spectrometry

| Binder | binding |
| --- | --- |
| B1 | binds |
| B2 | binds |
| B3 | binds |
